This test deals with T1, Dok-1 (UniProt Q99704).
T1 sequence (tyrosine-phosphorylated after zanolimumab exposure; sites not given, looked up): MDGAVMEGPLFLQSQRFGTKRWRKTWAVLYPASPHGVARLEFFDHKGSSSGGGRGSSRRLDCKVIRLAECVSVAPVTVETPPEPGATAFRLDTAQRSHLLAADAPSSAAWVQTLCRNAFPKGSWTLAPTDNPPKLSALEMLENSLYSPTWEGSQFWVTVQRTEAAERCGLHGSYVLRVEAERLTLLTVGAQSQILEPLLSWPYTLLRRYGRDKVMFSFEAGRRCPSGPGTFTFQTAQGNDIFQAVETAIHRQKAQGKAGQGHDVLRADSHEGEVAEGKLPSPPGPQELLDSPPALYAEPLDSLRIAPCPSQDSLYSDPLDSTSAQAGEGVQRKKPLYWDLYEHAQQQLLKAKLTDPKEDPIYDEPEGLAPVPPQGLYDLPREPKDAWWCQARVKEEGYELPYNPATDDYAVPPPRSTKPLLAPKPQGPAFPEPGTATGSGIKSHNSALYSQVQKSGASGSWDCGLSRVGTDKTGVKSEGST
Description: pull-down of SH2-binding proteins from CD4+ T cell lysates on glutathione agarose beads, Western blot for Dok-1. (In general: Immunoblotting shows a protein as a band on a membrane.)

No constants are given. Whether binding was seen depends on the method and setting. Binding seen in cells or lysates may run through a third protein. Some binding calls cover weakened binding; strength is not graded here. Where a sequence is shown, tags or fusion partners need not be part of it.

B1: SH2C-RasGAP-GST (protein, UniProt P20936 351-441, looked up, not shown: a dimerising Fc or GST)
chain: WFHGKISKQEAYNLLMTVGQVCSFLVRPSDNTPGDYSLYFRTNENIQRFKICPTPNNQFMMGGRYYNSIGDIIDHYRKEQIVEGYYLKEPV
In the case of B1, the binding result is listed as “binds”.

The values are drawn from patent publication US9309315B2, “Therapy with CD4 binding peptides and radiation” (GENMAB A/S, priority 2005, dated 2016).
